From patent publication US11884710B2 (priority 2013, dated 2024)

Assay: general procedure: Fmoc solid-phase peptide synthesis; Fmoc-Arg(Pbf)-Wang resin; DIC/HOBT
Conditions: whole synthesis, scale of the general procedure 0.1-mmol or 0.5-mmol scale of the general procedure

(AEEP)-(AEEP)-RRRRNQGRHFSGGALIHARFVMTAASCFQR
final purity (method not given): 97.24%
